# Measurements reported in PubChem BioAssay AID2685 (National Center for Advancing Translational Sciences (NCATS), 2010).
# The list shows a part of the results. These are further read-outs of the screen, such as a control signal, another cell line or another target. No call is given for them. The list favours compounds with an active or inconclusive main result. The note in brackets gives the kind of curve behind each potency; many fits are weak.
# Assay: qHTS Assay for Lipid Storage Modulators in Drosophila S3 Cells;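 for cell number change: cells counted by Cell Tracker Red CMTPX staining in the red channel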
# Conditions: BODIPY lipid droplet fluorescence, 18-24 h; for cell number change: measured here: cell count max response, cells fed with added oleic acid
# Method in brief: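 Drosophila S3 cells got compounds at several concentrations plus oleic acid (400 uM solution). Laser-scanning cytometry with 488 nm excitation read lipid droplets at 500-530 nm and cells at 575-640 nm. Percent activity was relative to 20 uM Triacsin C.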
# [1] = measured here: cell number channel AC50, cells fed with added oleic acid
# [2] = measured here: lipid fluorescence (Fed channel) AC50, cells fed with added oleic acid
smiles,measurement,setting,value
OC(COCc1ccc(Cl)cc1)CN1CCN(CC(O)COCc2ccc(Cl)cc2)CC1 (configuration not stated),cell number change,,-160%
same,AC50,[1],"29.1 µM [falling, single point]"
same,AC50,[2],"29.1 µM [falling, single point]"
COc1ccc(-c2nn(-c3ccccc3)cc2C(=O)n2nnc3ccccc32)cc1,cell number change,,7.37%
same,AC50,[2],"0.326 µM [falling, partial curve, poor fit]"
N#Cc1c(-c2cccnc2)cc(-c2ccccc2)nc1N,AC50,[2],"0.82 µM [rising, full curve, poor fit]"
CCOC(=O)C1=C(C)NC(=O)NC1C1CC=CCC1 (configuration not stated),AC50,[2],"20.6 µM [falling, single point]"
COc1ccc(OCCSc2nnc3c(Cl)cc(Cl)cn23)cc1,cell number change,,0.852%
same,AC50,[2],"0.058 µM [rising, full curve, poor fit]"
COc1ccccc1CNC(=O)C1CCC(=O)N1C(C)C (configuration not stated),cell number change,,31.2%
same,AC50,[1],"18.4 µM [rising, single point]"
O=C(Cn1c(O)c(/C=C2\C=Nc3ccccc32)sc1=O)Nc1ccc2c(c1)OCO2,cell number change,,-9.13%
same,AC50,[2],"9.2 µM [falling, partial curve]"
Cc1ccc(C23CC4CC(CC(C(=O)N5CCOCC5)(C4)C2)C3)cc1,cell number change,,68.8%
same,AC50,[1],"23.1 µM [rising, single point]"
CC(=O)c1ccc(NC(=O)[C@@H]2CCCN2C(=O)OC(C)(C)C)cc1,cell number change,,3.6%
Cn1nc(-c2ccc(Cl)cc2)c2cc(C(=O)NCc3ccco3)sc21,cell number change,,77.8%
same,AC50,[1],"2.06 µM [rising, full curve]"
same,AC50,[2],"1.64 µM [rising, partial curve]"
COc1ccccc1-c1cc(C(=O)Nc2cc(C)nn2-c2ccccc2)no1,AC50,[1],"6.51 µM [rising, partial curve, poor fit]"
COc1cc(SC)ccc1C(=O)OCC(=O)NC1CCCCC1,cell number change,,7.69%
CCOCCn1ccc2c(OCC(=O)Nc3ccccc3F)cccc2c1=O,cell number change,,67.9%
same,AC50,[1],"29.1 µM [rising, single point]"
same,AC50,[2],"29.1 µM [falling, single point]"
CCOC(=O)C1=C(c2ccccc2)OC(N)=C(C#N)C1c1ccncc1 (configuration not stated),cell number change,,-33.4%
same,AC50,[1],"4.11 µM [falling, full curve, poor fit]"
same,AC50,[2],"20.6 µM [falling, single point]"
CCn1c(Sc2nc(C)nc3scc(-c4cccs4)c23)n[nH]c1=O,cell number change,,-17.2%
CCCCCc1c(C)nc(SCC(=O)O)[nH]c1=O,cell number change,,-108%
same,AC50,[1],"4.61 µM [falling, partial curve]"
same,AC50,[2],"4.61 µM [falling, partial curve]"
CCN(CC)CCCNC(=S)N1CCN(c2nc(-c3ccc(F)cc3)cs2)CC1,cell number change,,6.45%
same,AC50,[2],"14.6 µM [falling, partial curve]"
Cc1ccc(S(=O)(=O)N2CCC(C(=O)OCC(=O)N3CCc4ccccc43)CC2)cc1,AC50,[2],"2.31 µM [falling, full curve]"
COc1cc(/C=C/c2cc(C(=O)O)c3ccccc3n2)cc(OC)c1O,cell number change,,140%
CCOc1ccccc1OCC(=O)Nc1cccc(S(=O)(=O)N2CCCCCC2)c1,cell number change,,-13%
CS(=O)(=O)c1ccc(NCCc2ccc(S(N)(=O)=O)cc2)c([N+](=O)[O-])c1,cell number change,,-9.24%
same,AC50,[2],"6.51 µM [rising, single point]"
CCC(C)OC(=O)C(C)Oc1ccc(-c2ccccc2)cc1 (configuration not stated),cell number change,,-18.6%
same,AC50,[1],"0.116 µM [falling, full curve]"
same,AC50,[2],"23.1 µM [falling, partial curve, poor fit]"
c1ccc(Cc2nn3c(COc4ccccc4)nnc3s2)cc1,cell number change,,87.1%
O=C(c1ccc(-c2nnc(-c3ccccc3)o2)cc1)N1CCCCCC1,cell number change,,18%
same,AC50,[2],"32.6 µM [rising, partial curve]"
Cc1ccc(C)c(/C=N/Nc2ccccn2)c1,AC50,[2],"0.116 µM [rising, full curve, poor fit]"
CCCCCn1c(SCC(=O)OCC)nc2cc(C(=O)NCc3ccco3)ccc2c1=O,cell number change,,-22.8%
same,AC50,[2],"4.61 µM [falling, full curve, poor fit]"
CCc1nnc(NC(=O)CCC(=O)N2CCN(C3CCCCC3)CC2)s1,cell number change,,-0.506%
Cc1nn(-c2ccccc2)c(C)c1/C=N/N1CCN(c2ccccn2)CC1,cell number change,,-20.4%
same,AC50,[1],"0.731 µM [rising, single point]"
same,AC50,[2],"0.731 µM [rising, single point]"
CCNC(=S)N=Nc1c(O)[nH]c2ccc(C(C)C)cc12,cell number change,,11.3%
C/C(=N\Nc1ncc(Cl)cc1Cl)c1ccc(S(=O)(=O)NCc2ccco2)cc1,cell number change,,-14.9%
same,AC50,[2],"20.6 µM [falling, single point]"
O=C(NC(Cc1ccc(F)cc1)C(=O)O)c1ccccc1 (configuration not stated),cell number change,,-13.6%
CCN(CC)S(=O)(=O)c1ccc(C)c(C(=O)Oc2cccc(-c3cnc4ccccc4n3)c2)c1,cell number change,,0.67%
same,AC50,[2],"29.1 µM [rising, single point]"
N#Cc1cccc(N=Cc2c(O)ccc3ccccc23)c1,cell number change,,-2.41%
same,AC50,[2],"29.1 µM [rising, single point]"
CN(Cc1ccccc1)C(=O)CCS(=O)(=O)c1ccc2c(c1)n(C)c(=O)c(=O)n2C,cell number change,,31.8%
same,AC50,[1],"0.82 µM [rising, full curve, poor fit]"
same,AC50,[2],"0.651 µM [rising, full curve, poor fit]"
Cc1ccc(NC(=O)C2CCCN2S(=O)(=O)c2cccc3cccnc23)cc1F (configuration not stated),cell number change,,-0.954%
same,AC50,[2],"29.1 µM [rising, single point]"
COC1=C(N2CCOCC2)C(=O)c2ccccc2C1=O,cell number change,,-38.7%
same,AC50,[1],"29.1 µM [falling, single point]"
Cc1ccc(Sc2nc(-c3ccccc3)ccc2C#N)cc1,cell number change,,-20.4%
same,AC50,[1],"0.00517 µM [rising, full curve, poor fit]"
CO/N=C\C(=N\Nc1ccc(OC)cc1)C(=O)c1ccccc1,cell number change,,250%
same,AC50,[1],"23.1 µM [rising, partial curve]"
same,AC50,[2],"4.11 µM [rising, partial curve]"
COc1ccccc1C(=O)NN1C(=O)C2C3C=CC(O3)C2C1=O (configuration not stated),cell number change,,-18.5%
same,AC50,[2],"23.1 µM [rising, partial curve]"
COC(=O)CSc1ncnc2c1cnn2-c1ccc(C)cc1C,cell number change,,-16.4%
same,AC50,[1],"3.26 µM [falling, single point]"
same,AC50,[2],"5.8 µM [falling, single point]"
COCCSc1nnc(-c2cnccn2)o1,cell number change,,-3.7%
same,AC50,[2],"23.1 µM [falling, single point]"
O=c1c2ccccc2nc(N/N=C/c2ccc(O)cc2)n1O,AC50,[2],"0.731 µM [falling, single point]"
O=C(CNc1cccc(S(=O)(=O)N2CCCC2)c1)Nc1ccc(F)cc1F,AC50,[2],"29.1 µM [falling, single point]"
CCNC(=O)CN(c1ccc(Cl)cc1)S(=O)(=O)c1ccccc1,cell number change,,15.1%
CCOc1cc(-c2n[nH]c(=S)n2Cc2ccccc2)ccc1OC(F)F,cell number change,,-46.2%
same,AC50,[1],"29.1 µM [falling, single point]"
same,AC50,[2],"32.6 µM [falling, partial curve]"
COc1ccc(C(C)C)cc1S(=O)(=O)Nc1ccccn1,cell number change,,-7.45%
CS(=O)(=O)Nc1ccc(C2=NN(S(C)(=O)=O)C(c3ccc4nccnc4c3)C2)cc1 (configuration not stated),cell number change,,0.455%
COc1ccc(CCNC(=O)C2CCN(S(=O)(=O)N3CCC(C)CC3)CC2)cc1OC,cell number change,,-32.1%
same,AC50,[1],"29.1 µM [falling, single point]"
NC(=O)C1CNc2ccccc2O1 (configuration not stated),cell number change,,-0.651%
same,AC50,[2],"20.6 µM [falling, single point]"
FC(F)(F)c1cccc(Sc2nc(-c3ccccc3)nnc2C(F)(F)F)c1,cell number change,,-109%
same,AC50,[1],"23.1 µM [falling, single point]"
same,AC50,[2],"29.1 µM [falling, single point]"
CCOC(=O)N1CCN(C(=O)/C=C/c2ccc([N+](=O)[O-])cc2)CC1,cell number change,,-38.1%
same,AC50,[2],"0.891 µM [rising, full curve, poor fit]"
COc1ccc(-c2nc(=S)c3ccc4ccccc4c3[nH]2)cc1,cell number change,,24.5%
same,AC50,[1],"6.51 µM [rising, partial curve, poor fit]"
same,AC50,[2],"6.51 µM [rising, partial curve]"
O=C(O/N=C1\CCCc2ccccc21)c1ccc(F)cc1,cell number change,,66.9%
same,AC50,[1],"29.1 µM [rising, single point]"
same,AC50,[2],"16.4 µM [rising, single point]"
Cc1nc(CCNC(=O)COc2ccccc2)cs1,cell number change,,85.3%
same,AC50,[1],"10.3 µM [rising, partial curve]"
same,AC50,[2],"6.51 µM [rising, single point]"
COCCOC(=O)c1c(C)oc2ccc(OC(=O)c3ccco3)cc12,cell number change,,-16.1%
same,AC50,[2],"4.61 µM [rising, partial curve, poor fit]"
Cc1onc(-c2ccccc2)c1C(=O)NC1CCC(C)CC1 (configuration not stated),cell number change,,-12.2%
same,AC50,[2],"5.8 µM [falling, partial curve]"
CCOc1cc(NC(=O)C2CC2)c(OCC)cc1NC(=O)c1cccnc1,cell number change,,10.8%
same,AC50,[2],"7.31 µM [rising, partial curve]"
COc1ccccc1C(=O)OCC(=O)c1cccc([N+](=O)[O-])c1,cell number change,,-19.7%
same,AC50,[2],"23.1 µM [falling, partial curve, poor fit]"
O=C(c1ccco1)N1CCN(C(=O)C2Cc3ccccc3CN2S(=O)(=O)c2ccc(F)cc2)CC1 (configuration not stated),cell number change,,-3.66%
same,AC50,[1],"0.82 µM [falling, full curve, poor fit]"
Cc1ccc(NC(=O)Cn2c(=O)n(Cc3ccco3)c(=O)c3ccccc32)c(C)c1,cell number change,,143%
same,AC50,[1],"0.0259 µM [rising, full curve, poor fit]"
same,AC50,[2],"0.0651 µM [rising, full curve]"

# Seven entries drawn at random from the list so far:
smiles,measurement,setting,value
CC(=O)c1ccc(NC(=O)[C@@H]2CCCN2C(=O)OC(C)(C)C)cc1,cell number change,,3.6%
COc1ccc(-c2nc(=S)c3ccc4ccccc4c3[nH]2)cc1,AC50,[2],"6.51 µM [rising, partial curve]"
Cc1nc(CCNC(=O)COc2ccccc2)cs1,AC50,[1],"10.3 µM [rising, partial curve]"
COCCOC(=O)c1c(C)oc2ccc(OC(=O)c3ccco3)cc12,AC50,[2],"4.61 µM [rising, partial curve, poor fit]"
COc1ccccc1C(=O)OCC(=O)c1cccc([N+](=O)[O-])c1,AC50,[2],"23.1 µM [falling, partial curve, poor fit]"
Cc1nn(-c2ccccc2)c(C)c1/C=N/N1CCN(c2ccccn2)CC1,AC50,[2],"0.731 µM [rising, single point]"
Cn1nc(-c2ccc(Cl)cc2)c2cc(C(=O)NCc3ccco3)sc21,AC50,[1],"2.06 µM [rising, full curve]"
